Test results from patent US20090226421A1.
These are yes or no findings as the source states them, for the method shown. Some binding calls cover weakened binding; strength is not graded here.

How the values were obtained:
Bet v 1 (birch) [1] = biological target: T1, Bet v 1 (birch) (UniProt P15494); assay: gel filtration fractions tested for binding of 125I-labelled Bet v 1 (Protein G Sepharose)
T1 sequence (125I-labelled (chloramine-T method) where used as the radiolabelled antigen, looked up): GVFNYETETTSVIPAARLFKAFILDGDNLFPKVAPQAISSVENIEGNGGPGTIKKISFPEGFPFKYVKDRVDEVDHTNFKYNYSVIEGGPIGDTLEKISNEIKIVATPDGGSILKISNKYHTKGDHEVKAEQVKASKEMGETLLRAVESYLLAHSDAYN

Bet v 1 (birch) [2] = biological target: T1, Bet v 1 (birch); assay: summary of the results (radio immuno assay of Example 49)
Bet v 1 (birch) [3] = biological target: T1, Bet v 1 (birch); assay: crosslinking radio immuno assay, birch pollen Sepharose and 125I-labelled Bet v 1
Bet v 1 (birch) [4] = biological target: T1, Bet v 1 (birch); assay: radio immuno assay, antibody on Protein G Sepharose, 125I-labelled Bet v 1

Measured: binding

B1: Betv1-HG (antibody)
heavy: EVQLQQSGAELVKPGASVKLSCTASGFNIKDTYIHWVKQRPEQGLEWVGRIDPATGNTRYDPKFQGKATITADTSSNTAYLQLSSLTSEDTAVYYCASFRPGYALDYWGQGTSVTVSSASTKGPSVFPLAPCSRSTSESTAALGCLVKDYFPEPVTVSWNSGALTSGVHTFPAVLQSSGLYSLSSVVTVPSSSLGTKTYTCNVDHKPSNTKVDKRVAPEFLGGPSVFLFPPKPKDTLMISRTPEVTCVVVDVSQEDPEVQFNWYVDGVEVHNAKTKPREEQFNSTYRVVSVLTVLHQDWLNGKEYKCKVSNKGLPSSIEKTISKAKGQPREPQVYTLPPSQEEMTKNQVSLTCLVKGFYPSDIAVEWESNGQPENNYKTTPPVLDSDGSFFLYSRLTVDKSRWQEGNVFSCSVMHEALHNHYTQKSLSLSLGK
light: DIVMTQSHKFMSTSVGDRVSFTCKASQDVFTAVAWYQQKPGQSPKLLIYWASTRRTGVPDRFTGSGSGTDYTLTISSVQAEDLALYYCQQHFSTPPTFGGGTKLEIKRTVAAPSVFIFPPSDEQLKSGTASVVCLLNNFYPREAKVQWKVDNALQSGNSQESVTEQDSKDSTYSLSSTLTLSKADYEKHKVYACEVTHQGLSSPVTKSFNRGEC
binds: Bet v 1 (birch) [1] | Bet v 1 (birch) [2] | Bet v 1 (birch) [3] | Bet v 1 (birch) [4]

B2: Betv1-IgG1 (antibody, not shown: a dimerising Fc or GST)
heavy: EVQLQQSGAELVKPGASVKLSCTASGFNIKDTYIHWVKQRPEQGLEWVGRIDPATGNTRYDPKFQGKATITADTSSNTAYLQLSSLTSEDTAVYYCASFRPGYALDYWGQGTSVTVSS
light: DIVMTQSHKFMSTSVGDRVSFTCKASQDVFTAVAWYQQKPGQSPKLLIYWASTRRTGVPDRFTGSGSGTDYTLTISSVQAEDLALYYCQQHFSTPPTFGGGTKLEIKRTVAAPSVFIFPPSDEQLKSGTASVVCLLNNFYPREAKVQWKVDNALQSGNSQESVTEQDSKDSTYSLSSTLTLSKADYEKHKVYACEVTHQGLSSPVTKSFNRGEC
binds: Bet v 1 (birch) [3] | Bet v 1 (birch) [4]
